In PMC7819943, “Rice protein-binding microarrays: a tool to detect cis-acting elements near promoter regions in rice”:
The list shows a part of the results.

Protein sequences, listed by entry. Tags and fused reporters are not part of them.
UniProt Q0JBA9, entry or part of it: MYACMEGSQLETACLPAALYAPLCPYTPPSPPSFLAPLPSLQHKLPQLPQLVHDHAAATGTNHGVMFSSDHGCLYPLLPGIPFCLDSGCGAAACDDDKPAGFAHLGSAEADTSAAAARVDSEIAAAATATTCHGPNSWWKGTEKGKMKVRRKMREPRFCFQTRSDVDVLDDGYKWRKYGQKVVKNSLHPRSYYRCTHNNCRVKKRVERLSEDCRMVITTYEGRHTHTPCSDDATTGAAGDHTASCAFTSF

target: OsWRKY34 (Oryza sativa, UniProt Q0JBA9 1-250); test: protein-binding microarray (RPBM); PBS, 2% BSA, 51.3 ng/ul salmon testes DNA, 50 uM zinc acetate, 200 nM TF, 25 C, 1 h; high values mean tight binding; conditions: protein: recombinant; tags: N-terminal polyhistidine and DsRed monomer fusion (pET32a); label: CyDye5-dUTP incorporated in the synthesized complementary strand; 3' TTTTT single-stranded linker to array surface; dsDNA, one strand shown
Summary of the method: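 Binding signal is defined as the fluorescence intensity of each feature in arbitrary units, read on an Axon 4000B scanner. Transcription factors with N-terminal polyhistidine and DsRed fusions came from E. coli BL21-CodonPlus and were purified on Ni–NTA. They were incubated at 200 nM for 1 h at 25 °C on a custom Agilent array that had been made double-stranded with Cy5-dUTP, with 50 µM zinc acetate present, and the array was washed.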

Row | Sequence | binding signal
1 | GCGGCTGGTATTCACATCGATTCTTTTGTCGCAGCTGGCGCGGAGTCACCTAGTGCAG | 9560 fluorescence intensity (a.u.)
2 | ATCACATCAAAATTTTCCTACACACATAAACTTCCAACTTCGGAGTCACCTAGTGCAG | 8140 fluorescence intensity (a.u.)
3 | CCAGGTGCTTGTTGTAGCATTTGTATCTGCAGTCTCATTCCGGAGTCACCTAGTGCAG | 11500 fluorescence intensity (a.u.)
4 | TTATAGTCTGCTTATTGTACCTGCTCTAAGGAGCTCTTCACGGAGTCACCTAGTGCAG | 9260 fluorescence intensity (a.u.)
5 | TACCTCTGCTGGTGTCACCATGACCTCCTTGATCAACTCTCGGAGTCACCTAGTGCAG | 10300 fluorescence intensity (a.u.)
6 | TTCTTCCTTTCTCTGTGTTTGTTTGTTTCCAGTTGCCACTCGGAGTCACCTAGTGCAG | 10000 fluorescence intensity (a.u.)
7 | TCCTGGCCTATCTGTTCAGGTGCAGAATGCACTAGTTTCACGGAGTCACCTAGTGCAG | 8260 fluorescence intensity (a.u.)
8 | TGTGGTTACTGTGTCGTTACTGTCTATATACCTCCCTGTTCGGAGTCACCTAGTGCAG | 13000 fluorescence intensity (a.u.)
9 | CCCATTTTTTGTCAATTGAACTGATGGCCATGTTTTCAACCGGAGTCACCTAGTGCAG | 9750 fluorescence intensity (a.u.)
10 | AAAACAATTTCCTTTTGGGGTGGTTCATCTGTTGATCACTCGGAGTCACCTAGTGCAG | 8192 fluorescence intensity (a.u.)
11 | CCGTTGACTTTTTAGTACATGTTTAACCGTTCGTCTTATTCGGAGTCACCTAGTGCAG | 38600 fluorescence intensity (a.u.)
12 | CTTTGTCCCGCGATCCCGGCGGTGCTCCGTCCATAGCTCTCGGAGTCACCTAGTGCAG | 12200 fluorescence intensity (a.u.)
13 | AGATTTTTCTTTTACCAGTTTAAACTGTTTAGCTGTATACCGGAGTCACCTAGTGCAG | 8300 fluorescence intensity (a.u.)
14 | TCCTTTTTTTTGGGTGCTTTTCTTTTGTATAGCACTGTACCGGAGTCACCTAGTGCAG | 65500 fluorescence intensity (a.u.)
15 | CTCCGCCTCGCGCCGTTGTCGCCGTCGCCTCGCGCCGCCACGGAGTCACCTAGTGCAG | 10100 fluorescence intensity (a.u.)
16 | TTGCAGTTCTCTGAATTTTTCTGGTGTTGGTTCAACACCACGGAGTCACCTAGTGCAG | 10000 fluorescence intensity (a.u.)
17 | GGCGCCGGGGTGGGGTGGTGCTGGAGCCACCGGAGGAGCGCGGAGTCACCTAGTGCAG | 9730 fluorescence intensity (a.u.)
18 | GAGGAGGTTGGGTTCTTGATCGGTGTCGGATTTTTGGTTGCGGAGTCACCTAGTGCAG | 10800 fluorescence intensity (a.u.)
19 | CGGCCCATGCTACAGGGGTGGGTTGGTGATGAATTCTCCGCGGAGTCACCTAGTGCAG | 10500 fluorescence intensity (a.u.)
20 | CTATTTCATCGTCCCTTCTGCATTAGGCCTAAATTTCCCACGGAGTCACCTAGTGCAG | 10100 fluorescence intensity (a.u.)
21 | CAACGATGGCATCTTCCCGGCGTCGATGGAGGGGCGGAACCGGAGTCACCTAGTGCAG | 8080 fluorescence intensity (a.u.)
22 | CCTGCTGACTGGACCACTACCTGTGACCCTTGGGAACCTCCGGAGTCACCTAGTGCAG | 10100 fluorescence intensity (a.u.)
23 | TTGTGAACTTTTGACTTTTGCAATTTCTTGACTTATACCTCGGAGTCACCTAGTGCAG | 8700 fluorescence intensity (a.u.)
24 | TCCTACCCTTTTTTTTTTGTGTGTTTGTGACGACACGACACGGAGTCACCTAGTGCAG | 8200 fluorescence intensity (a.u.)
25 | GTTGTACAATGTACTATGCATTTTCTGATTTTTACCCTCACGGAGTCACCTAGTGCAG | 9050 fluorescence intensity (a.u.)
26 | CGCACCGTCGACTAGTCCCGTCCCGTCGCGCCGTTGCCTTCGGAGTCACCTAGTGCAG | 8590 fluorescence intensity (a.u.)
27 | CATATCAGCAACACATATCAGTTCATCAATATTTCAGTACCGGAGTCACCTAGTGCAG | 9480 fluorescence intensity (a.u.)

Copied from above: entries 4–14
Row | Sequence | binding signal
4 | TTATAGTCTGCTTATTGTACCTGCTCTAAGGAGCTCTTCACGGAGTCACCTAGTGCAG | 9260 fluorescence intensity (a.u.)
5 | TACCTCTGCTGGTGTCACCATGACCTCCTTGATCAACTCTCGGAGTCACCTAGTGCAG | 10300 fluorescence intensity (a.u.)
6 | TTCTTCCTTTCTCTGTGTTTGTTTGTTTCCAGTTGCCACTCGGAGTCACCTAGTGCAG | 10000 fluorescence intensity (a.u.)
7 | TCCTGGCCTATCTGTTCAGGTGCAGAATGCACTAGTTTCACGGAGTCACCTAGTGCAG | 8260 fluorescence intensity (a.u.)
8 | TGTGGTTACTGTGTCGTTACTGTCTATATACCTCCCTGTTCGGAGTCACCTAGTGCAG | 13000 fluorescence intensity (a.u.)
9 | CCCATTTTTTGTCAATTGAACTGATGGCCATGTTTTCAACCGGAGTCACCTAGTGCAG | 9750 fluorescence intensity (a.u.)
10 | AAAACAATTTCCTTTTGGGGTGGTTCATCTGTTGATCACTCGGAGTCACCTAGTGCAG | 8192 fluorescence intensity (a.u.)
11 | CCGTTGACTTTTTAGTACATGTTTAACCGTTCGTCTTATTCGGAGTCACCTAGTGCAG | 38600 fluorescence intensity (a.u.)
12 | CTTTGTCCCGCGATCCCGGCGGTGCTCCGTCCATAGCTCTCGGAGTCACCTAGTGCAG | 12200 fluorescence intensity (a.u.)
13 | AGATTTTTCTTTTACCAGTTTAAACTGTTTAGCTGTATACCGGAGTCACCTAGTGCAG | 8300 fluorescence intensity (a.u.)
14 | TCCTTTTTTTTGGGTGCTTTTCTTTTGTATAGCACTGTACCGGAGTCACCTAGTGCAG | 65500 fluorescence intensity (a.u.)

Further results.

Row | Sequence | binding signal
28 | GTCACCCTTTTGTTTCGTTTTTCCATCAGCTAGTGCATTGCGGAGTCACCTAGTGCAG | 9590 fluorescence intensity (a.u.)
29 | TCACCCTATGTTCCTGTGTTTTGTACTCTTTCGTAACAGCCGGAGTCACCTAGTGCAG | 12900 fluorescence intensity (a.u.)
30 | CATTTTTGTTGGTTATTAGTTTTTAGGCCATTTTATTTACCGGAGTCACCTAGTGCAG | 10300 fluorescence intensity (a.u.)
31 | CCTCCACCATCGCCACCACCTCCGCCTCGTTTCCATCGCCCGGAGTCACCTAGTGCAG | 9340 fluorescence intensity (a.u.)
32 | CGGCTCGCTCAACCATACCACCTTTTCAAATTCATTTTTCCGGAGTCACCTAGTGCAG | 11600 fluorescence intensity (a.u.)
33 | TCCACTGCACTTCATACCTTTTCGTCTGCTCTTTCTTCAGCGGAGTCACCTAGTGCAG | 12100 fluorescence intensity (a.u.)
34 | ACCACCGCCGCCGCCGTCTTACTCTCTCTGTCTCGAGCTCCGGAGTCACCTAGTGCAG | 8810 fluorescence intensity (a.u.)
35 | TTTGCTCTCATCACACATTCAATCACTCCATAAATTTTGACGGAGTCACCTAGTGCAG | 9550 fluorescence intensity (a.u.)
36 | TTCTGCTTGTGTTCGGTAGTCTACCATGTTGACTTGCCGGCGGAGTCACCTAGTGCAG | 11700 fluorescence intensity (a.u.)
37 | TTACACTTTCTCCTCCATCATGCGCTCATGGCCATCCATTCGGAGTCACCTAGTGCAG | 8320 fluorescence intensity (a.u.)
38 | ATCCCTCCCTAACCCGTCTACTTGGCCGATAACCCGTCTCCGGAGTCACCTAGTGCAG | 10900 fluorescence intensity (a.u.)
39 | CTATTTCCATGAAGCGTGTATGTCTTGTAAGTTGTGACGGCGGAGTCACCTAGTGCAG | 9260 fluorescence intensity (a.u.)
40 | ACGCTGGTGATTTTTTTTTTCTTTTCACGTGGTACTGATTCGGAGTCACCTAGTGCAG | 11300 fluorescence intensity (a.u.)
41 | GAAGTAGGGGTGACAATTTTCTCGGTGGGTGCAGGGTCCCCGGAGTCACCTAGTGCAG | 9340 fluorescence intensity (a.u.)
42 | CGAATCGTTTTTTTATAATGGTAGAGGTGGGAAATTTTTTCGGAGTCACCTAGTGCAG | 8400 fluorescence intensity (a.u.)
43 | GCGGACCAACCAACCAATCACTCGCTCGCCGCCGGCCATGCGGAGTCACCTAGTGCAG | 9090 fluorescence intensity (a.u.)
44 | TTGCACCGGTTTCAATAGTTCGGGAGTCGGGATATCCGAACGGAGTCACCTAGTGCAG | 8190 fluorescence intensity (a.u.)
45 | TATGTTTGTTTTGTGTTGATAATATTGCTATATTTTTCTTCGGAGTCACCTAGTGCAG | 10500 fluorescence intensity (a.u.)
46 | CCGCCTAGTCTCATTGGAAACCACCTCATTAGTCATCCCACGGAGTCACCTAGTGCAG | 8680 fluorescence intensity (a.u.)
47 | TTCGGTTTGTATCAGCACTCCTGCATTTGGGTCATTCACTCGGAGTCACCTAGTGCAG | 12000 fluorescence intensity (a.u.)
48 | AGCTCCATGTCTACCGCCACCGGAGCTCCGGCCATGTCCGCGGAGTCACCTAGTGCAG | 9530 fluorescence intensity (a.u.)
49 | ATGCATTGTTGTCATTCGCACCTACCTGTAACCAGACCTTCGGAGTCACCTAGTGCAG | 9140 fluorescence intensity (a.u.)
50 | GCACAAGAGTAACACCCTTCATTTTTTTTCTTGCTACCTCCGGAGTCACCTAGTGCAG | 8980 fluorescence intensity (a.u.)
51 | GTGGTTTGCCCCTAGCTGTTGTCACTATCGCAAGTCTTTTCGGAGTCACCTAGTGCAG | 10600 fluorescence intensity (a.u.)
52 | TTAATCTCAGTTTAGAATCCATGCTGTTTCTATCTCAAATCGGAGTCACCTAGTGCAG | 8610 fluorescence intensity (a.u.)
53 | GTGTGTGCCTCCTTTTCTCTTCTTCAGTTTTCAACTCAAACGGAGTCACCTAGTGCAG | 9440 fluorescence intensity (a.u.)
54 | TTTTACCCGCCAAGTATCTTGTTCCTCCACGCTATATATCCGGAGTCACCTAGTGCAG | 11700 fluorescence intensity (a.u.)
